# Assay results as given in PubChem BioAssay AID1259354 (Paczesny and Yang Labs, IUPUI and University of Michigan, 2018).
# By UniProt entry, the sequences of proteins in these tests, tags left out. Where a name states a change or a piece, a line headed by the entry shows the natural chain unless it says otherwise.
# UniProt Q01638: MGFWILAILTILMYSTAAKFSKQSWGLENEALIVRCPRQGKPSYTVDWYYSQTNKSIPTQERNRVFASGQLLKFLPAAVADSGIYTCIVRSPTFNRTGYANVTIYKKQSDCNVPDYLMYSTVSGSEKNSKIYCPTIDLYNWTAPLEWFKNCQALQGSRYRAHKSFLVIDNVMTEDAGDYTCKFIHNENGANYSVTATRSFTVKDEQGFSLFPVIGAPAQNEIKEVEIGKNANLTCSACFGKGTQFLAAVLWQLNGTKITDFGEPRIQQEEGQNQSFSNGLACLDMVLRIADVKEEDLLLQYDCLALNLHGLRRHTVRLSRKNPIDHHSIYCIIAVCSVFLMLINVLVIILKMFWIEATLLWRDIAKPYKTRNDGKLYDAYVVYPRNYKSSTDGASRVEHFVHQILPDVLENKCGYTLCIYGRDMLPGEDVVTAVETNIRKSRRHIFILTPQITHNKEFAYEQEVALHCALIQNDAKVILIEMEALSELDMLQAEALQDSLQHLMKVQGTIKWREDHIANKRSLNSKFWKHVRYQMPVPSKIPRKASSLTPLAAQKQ
# Hit rate of the full screen: of about 78,000 compounds, about 1,800 (2.3%) were called active. Inconclusive results, whose numbers are uncertain, are shown with a selection of clear calls. Rule as the data show it: active = inhibition above about 30%; inconclusive = mostly about 10% to 28%; inactive = weaker than that.
# Target: Interleukin-1 receptor-like 1 (Homo sapiens) (UniProt Q01638)
# Test: blocks human ST2 binding to IL-33, primary screen, biochemical, AlphaLISA (AID 1259354)
# Details: AlphaLISA ST2-Fc/biotin-IL-33 interaction, 1 h; at 17 µM, active compounds read high
row,Compound,inhibition
1,COc1ccc(N(C)C(=O)c2cc3cc4ccc(C)cc4nc3s2)cc1,inconclusive: 13%
2,Cc1cccn2c(CNC(=O)[C@@]34CC[C@@](C)(OC3=O)C4(C)C)cnc12,inconclusive: 20%
3,CC(C)Cc1cc(C(=O)N2CCCN(C(=O)C3CCCO3)CC2)n(C)n1 (stereo not given),inactive
4,CCc1nc(C)c(C(=O)NC(C)c2nnc3n2CCNCC3)o1 (stereo not given),inactive
5,O=C(C1CC(=O)N(C2CCCCCC2)C1)N1CCN(c2ccc(F)cc2)CC1 (stereo not given),inconclusive: 21%
6,c1cc(CCSC2CCCCC2)ccn1,inactive
7,O=C(O/N=C1\CCSc2ccccc21)c1ccccc1,inconclusive: 19%
8,Cc1ccsc1-c1nc(Cn2ccnc2-c2ccccn2)c(C)o1,inactive
9,COc1cccc(C(=O)Nc2cc3c(cc2C(C)=O)OCO3)c1,inactive
10,Cc1ccc(CN(CCN(C)C)C(=O)c2ccc[nH]c2=O)s1,inconclusive: 11%
11,O=C(Nc1ccc(Oc2cccnc2)cc1)C1CCCCN1Cc1ccc2c(c1)CCO2 (stereo not given),inactive
12,O=C(O)CCC(=O)Nc1ccc(I)cc1,inactive
13,COc1ccc(-n2ncc3c2CC(C)(C)CC3NC(=O)c2ccc(OC)o2)cc1 (stereo not given),inconclusive: 13%
14,Cn1c(C(=O)NCc2ccco2)cc2c(=O)n3ccccc3nc21,inactive
15,COc1ccc(CN2C[C@H](O)C[C@H]2c2nc(-c3cccc(C)c3)no2)cc1,inconclusive: 10%
16,CN(C)c1ccc(/C=C2/S/C(=N\O)NC2=O)cc1,inconclusive: 22%
17,CCOC(=O)c1nn(Cc2ccccc2)c2c1CN(Cc1cn[nH]c1-c1ccccc1)CC2,inconclusive: 18%
18,O=C1C2[C@H](C(=O)N1c1cccc([N+](=O)[O-])c1)C1c3ccccc3C2(C(=O)O)c2ccccc21 (stereo not given in full),inconclusive: 20%
19,Cc1ccc2nc(NC(=O)CCS(=O)(=O)c3ccc(Br)s3)sc2c1,inactive
20,CSc1ccc(-c2nc(CSCC(=O)N3CCN(c4ccc(F)cc4)CC3)c(C)o2)cc1,inconclusive: 21%

# Part of the list above in another layout:
row	Compound	inhibition
5	O=C(C1CC(=O)N(C2CCCCCC2)C1)N1CCN(c2ccc(F)cc2)CC1 (stereo not given)	inconclusive: 21%
7	O=C(O/N=C1\CCSc2ccccc21)c1ccccc1	inconclusive: 19%
20	CSc1ccc(-c2nc(CSCC(=O)N3CCN(c4ccc(F)cc4)CC3)c(C)o2)cc1	inconclusive: 21%

# Carrying on:

row,Compound,inhibition
1,Cc1cc(/C=C2\C(=O)NN(c3ccccc3)C2=O)c(C)n1-c1ccc(F)cc1,inconclusive: 17%
2,CC(=O)c1c(C)oc2ccc(N(C(=O)c3ccc(C)cc3)S(=O)(=O)c3ccccc3)cc12,inconclusive: 11%
3,CC(C)NC(=O)[C@@H]1C[C@H](N)CN1C(=O)c1cccc2c3c([nH]c12)CCCC3,inconclusive: 18%
4,COc1ccc(OC)c(NC(=O)C(=O)NCCC2=CCCCC2)c1,inconclusive: 15%
5,Cc1ccc(-c2ccnc(N3CCOC4(CNCCOC4)C3)n2)c(C)n1 (stereo not given),inconclusive: 10%
6,COc1ccc(-c2noc([C@@H]3C[C@H](NCc4ccc(S(C)(=O)=O)cc4)CN3C)n2)cc1,inconclusive: 12%
7,CCCCN1CCc2c1nc1ccc(Br)cc1c2N,inconclusive: 23%
8,Cc1ccnc(C(NC(=O)c2cnc3cccc(C)n3c2=O)C2CC2)c1 (stereo not given),inactive
9,CC(=NS(=O)(=O)c1ccc(C)cc1)N1CCOCC1,inconclusive: 12%
10,COc1cccc(NC(=O)c2cccc(C(=O)Nc3cccc(OC)c3)c2)c1,inconclusive: 15%
11,Cc1cc([N+](=O)[O-])nn1CCCC(=O)Nc1sc2c(c1C#N)CCC(C(C)(C)C)C2 (stereo not given),inconclusive: 10%
12,CN(C)c1ccc(-c2ccnc(N[C@H]3CO[C@H]4[C@@H]3OC[C@H]4OC(=O)Nc3cccc(C(F)(F)F)c3)n2)cc1,inconclusive: 20%
13,COc1ccc(C2CC(=O)C3=C(C2)Nc2ccccc2NC3c2c(F)cccc2Cl)cc1 (stereo not given),inactive
14,CCC1=C(c2ccc(OC)cc2)S(=O)(=O)N(CC(=O)NC2CCCCCC2)C1=O,inactive
15,CCCCN(C)S(=O)(=O)c1ccc(C(=O)Nc2nnc(C3CC3)o2)cc1,inconclusive: 17%
16,COc1ccc(S(=O)(=O)N(CC(=O)Nc2ccc(F)cc2)c2ccccc2)cc1,inconclusive: 11%
17,COc1ccc(C)cc1S(=O)(=O)N1CCN(c2nc(C)cc(Nc3ccc(C)cc3)n2)CC1,inconclusive: 20%
18,COc1ccc(C2=NN(C(=O)CCC(=O)O)C(c3cc4ccc(C)cc4nc3Cl)C2)cc1 (stereo not given),inactive
19,CC(C)Oc1cc(N(C)CC(C)N2CCOCC2)nc(N)n1 (stereo not given),inconclusive: 13%
20,O=C(N[C@H]1CCN2C(=O)c3ccccc3NC(=O)[C@H]12)C1CCCC1,inactive

row,Compound,inhibition
1,c1ccc(-c2ncn(C3CCNC3)c2-c2cccn2-c2nccs2)cc1 (stereo not given),inconclusive: 12%
2,O=C1CCCC2=C1C(c1cccc(F)c1)n1nc(SCc3ccccc3F)nc1N2 (stereo not given),inconclusive: 12%
3,Cc1nc2c(C(=O)NC3CC3)c[nH]n2c(=O)c1Cc1ccccc1F,inconclusive: 13%
4,O=C(c1cccnc1-c1cccc2ncccc12)N1CCCCC1,inconclusive: 22%
5,COc1ccc(C(=O)N2CCN(CCSc3ccccc3)CC2)cc1,inconclusive: 10%
6,CCc1c(C)nn(CC(=O)NC(C)c2ccc(O)c(F)c2)c1C (stereo not given),inconclusive: 16%
7,COc1cc(C(=O)N2CCN=C2SCc2ccccc2Cl)cc(OC)c1OC,inconclusive: 10%
8,O=C(CC[C@@H]1CNC(=O)[C@@H]2C[C@H](NC(=S)NC3CC3)CN12)NC1CC1,inconclusive: 23%
9,COc1ccc(COCC(O)CN2CCN(C)CC2)cc1OC (stereo not given),inactive
10,Cc1noc(C)c1CNC(=O)C1CCCN(Cc2ccco2)C1 (stereo not given),inconclusive: 19%
11,O=NN(CCCl)C(=O)NCCCl,inconclusive: 26%
12,CN(Cc1ccc(-c2ncc[nH]2)o1)S(C)(=O)=O,inactive
13,Cc1nc(-c2c(C)[nH]c3ccccc23)cs1,active: 36%
14,CN(Cc1ccc2nonc2c1)Cc1nc(-c2cccs2)no1,inconclusive: 13%
15,CCC(=O)N1c2ccc(S(=O)(=O)NC(C)CC)cc2CC1C (stereo not given),inactive
16,O=C(O)c1cccnc1CN1CCCCC1CCc1cccc(O)c1 (stereo not given),inactive
17,CCN(C)C(=O)c1ccc(N2C[C@H]3CC=CC[C@H]3C2)nc1,inconclusive: 16%
18,Cc1cc(N2CCC(C)CC2)nc2ccc(NC(=O)C3CCCO3)cc12 (stereo not given),inactive
19,CCC(=O)N1c2ccccc2-c2nnc(SC)nc2OC1c1ccco1 (stereo not given),inconclusive: 11%
20,O=C(Cn1nc(-c2ccccc2)ccc1=O)NCc1cccnc1,inactive
